# Values joined by “and” are separate entries in the source; they are usually repeats but may differ in a detail not shown here. Equal entries are not always repeated. The shares of active, inactive and inconclusive entries below differ from those in the screen. For some of these results: Potencies of inconclusive entries are doubtful fits and often do not repeat. More than one record can exist for a structure, and the calls need not agree. Active and inactive are the calls of the source. The calls were made as follows: active = hit-call score of the fitted dose curve at least 0.9, where 1 is the maximum; inconclusive = response in the unintended direction; inactive = score below 0.9.
# Protein sequences, listed by entry. Tags and fused reporters are not part of them. Lines headed by an entry give the natural chain unless they say otherwise; changes in a name come on top.
# UniProt P05979, whole entry, looked up: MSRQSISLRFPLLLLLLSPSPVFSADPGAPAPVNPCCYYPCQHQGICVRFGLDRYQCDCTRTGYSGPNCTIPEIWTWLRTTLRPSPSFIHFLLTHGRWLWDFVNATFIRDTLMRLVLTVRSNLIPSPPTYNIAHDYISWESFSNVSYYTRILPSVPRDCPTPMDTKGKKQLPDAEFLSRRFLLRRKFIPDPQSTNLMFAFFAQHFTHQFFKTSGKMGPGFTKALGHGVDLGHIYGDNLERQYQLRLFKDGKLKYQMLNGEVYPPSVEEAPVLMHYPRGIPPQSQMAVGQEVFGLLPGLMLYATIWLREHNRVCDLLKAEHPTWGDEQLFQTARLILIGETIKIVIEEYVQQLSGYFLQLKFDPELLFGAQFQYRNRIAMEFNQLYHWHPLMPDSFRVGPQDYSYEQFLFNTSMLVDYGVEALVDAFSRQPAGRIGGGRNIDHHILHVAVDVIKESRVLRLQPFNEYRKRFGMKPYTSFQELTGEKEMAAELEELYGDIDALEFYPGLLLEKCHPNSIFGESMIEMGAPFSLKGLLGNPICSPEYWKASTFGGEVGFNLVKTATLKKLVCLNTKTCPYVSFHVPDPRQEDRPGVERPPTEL
# UniProt P04386, whole entry, looked up: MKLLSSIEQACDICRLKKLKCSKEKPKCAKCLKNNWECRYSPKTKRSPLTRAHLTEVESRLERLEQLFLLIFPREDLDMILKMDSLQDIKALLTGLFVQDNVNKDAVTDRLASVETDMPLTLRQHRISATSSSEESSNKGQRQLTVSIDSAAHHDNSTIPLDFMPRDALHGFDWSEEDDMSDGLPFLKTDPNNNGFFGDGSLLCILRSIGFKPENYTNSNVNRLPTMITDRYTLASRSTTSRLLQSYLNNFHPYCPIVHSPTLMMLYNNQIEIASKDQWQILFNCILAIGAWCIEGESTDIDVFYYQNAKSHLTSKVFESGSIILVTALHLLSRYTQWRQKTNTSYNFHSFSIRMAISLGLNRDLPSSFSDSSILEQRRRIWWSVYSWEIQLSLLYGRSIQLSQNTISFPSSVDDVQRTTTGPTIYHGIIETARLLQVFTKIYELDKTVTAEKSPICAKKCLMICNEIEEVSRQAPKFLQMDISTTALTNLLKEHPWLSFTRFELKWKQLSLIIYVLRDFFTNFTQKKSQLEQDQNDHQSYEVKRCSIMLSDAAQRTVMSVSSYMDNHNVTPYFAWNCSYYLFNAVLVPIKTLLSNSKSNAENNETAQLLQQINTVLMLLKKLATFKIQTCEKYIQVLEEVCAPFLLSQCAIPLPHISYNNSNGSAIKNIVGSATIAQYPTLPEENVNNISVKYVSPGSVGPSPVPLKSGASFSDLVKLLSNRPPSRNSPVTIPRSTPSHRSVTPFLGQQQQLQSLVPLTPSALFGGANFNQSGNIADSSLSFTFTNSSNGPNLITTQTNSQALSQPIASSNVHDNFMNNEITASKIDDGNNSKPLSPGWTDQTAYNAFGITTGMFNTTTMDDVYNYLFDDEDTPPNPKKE
# UniProt P15204: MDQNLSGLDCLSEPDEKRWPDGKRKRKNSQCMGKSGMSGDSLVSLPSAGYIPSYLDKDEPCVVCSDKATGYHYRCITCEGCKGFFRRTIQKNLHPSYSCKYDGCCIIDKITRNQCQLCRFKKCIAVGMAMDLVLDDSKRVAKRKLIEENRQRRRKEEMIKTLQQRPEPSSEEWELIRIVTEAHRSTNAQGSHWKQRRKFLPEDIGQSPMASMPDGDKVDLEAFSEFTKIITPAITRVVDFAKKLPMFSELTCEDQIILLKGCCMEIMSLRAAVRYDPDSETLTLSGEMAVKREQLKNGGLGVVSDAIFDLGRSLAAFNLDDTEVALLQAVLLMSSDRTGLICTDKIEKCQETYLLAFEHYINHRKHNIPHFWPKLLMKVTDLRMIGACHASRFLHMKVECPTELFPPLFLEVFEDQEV
# UniProt P31749: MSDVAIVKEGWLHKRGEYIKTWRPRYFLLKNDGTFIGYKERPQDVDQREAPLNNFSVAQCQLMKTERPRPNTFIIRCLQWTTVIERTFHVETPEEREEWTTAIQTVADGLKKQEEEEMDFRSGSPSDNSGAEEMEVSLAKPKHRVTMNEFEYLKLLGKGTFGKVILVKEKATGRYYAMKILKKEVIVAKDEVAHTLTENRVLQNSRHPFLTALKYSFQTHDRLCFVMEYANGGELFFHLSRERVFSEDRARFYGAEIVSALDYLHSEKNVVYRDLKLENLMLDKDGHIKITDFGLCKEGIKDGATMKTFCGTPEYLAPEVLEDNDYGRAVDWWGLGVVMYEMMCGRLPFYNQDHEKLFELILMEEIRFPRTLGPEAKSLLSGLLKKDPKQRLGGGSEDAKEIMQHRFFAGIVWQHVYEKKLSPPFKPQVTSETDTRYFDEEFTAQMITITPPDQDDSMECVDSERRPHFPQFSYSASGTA
# UniProt Q07869: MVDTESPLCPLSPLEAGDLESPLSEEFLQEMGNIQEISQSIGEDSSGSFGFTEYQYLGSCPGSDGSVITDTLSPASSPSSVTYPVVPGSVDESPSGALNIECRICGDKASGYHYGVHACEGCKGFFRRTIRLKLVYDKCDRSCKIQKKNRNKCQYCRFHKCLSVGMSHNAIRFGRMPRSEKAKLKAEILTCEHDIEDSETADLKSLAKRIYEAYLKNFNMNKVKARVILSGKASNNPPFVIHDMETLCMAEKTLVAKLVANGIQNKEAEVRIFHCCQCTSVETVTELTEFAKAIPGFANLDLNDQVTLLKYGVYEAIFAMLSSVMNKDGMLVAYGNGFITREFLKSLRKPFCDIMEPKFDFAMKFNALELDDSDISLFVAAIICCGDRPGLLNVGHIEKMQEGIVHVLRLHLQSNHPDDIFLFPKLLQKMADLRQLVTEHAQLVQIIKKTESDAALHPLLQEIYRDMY
# UniProt P62508: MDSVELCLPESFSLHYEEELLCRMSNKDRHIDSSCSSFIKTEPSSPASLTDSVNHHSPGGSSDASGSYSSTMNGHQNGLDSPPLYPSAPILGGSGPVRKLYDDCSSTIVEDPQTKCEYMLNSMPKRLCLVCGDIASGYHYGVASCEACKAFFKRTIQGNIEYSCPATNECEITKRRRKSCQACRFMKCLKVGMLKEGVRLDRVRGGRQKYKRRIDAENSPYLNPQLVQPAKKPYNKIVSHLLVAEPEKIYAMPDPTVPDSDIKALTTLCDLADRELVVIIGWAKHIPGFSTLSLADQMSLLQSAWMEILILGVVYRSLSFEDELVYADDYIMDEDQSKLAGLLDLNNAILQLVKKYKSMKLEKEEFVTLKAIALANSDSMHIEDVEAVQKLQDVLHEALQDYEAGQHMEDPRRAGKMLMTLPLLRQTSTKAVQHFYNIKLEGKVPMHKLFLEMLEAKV
# UniProt O97775: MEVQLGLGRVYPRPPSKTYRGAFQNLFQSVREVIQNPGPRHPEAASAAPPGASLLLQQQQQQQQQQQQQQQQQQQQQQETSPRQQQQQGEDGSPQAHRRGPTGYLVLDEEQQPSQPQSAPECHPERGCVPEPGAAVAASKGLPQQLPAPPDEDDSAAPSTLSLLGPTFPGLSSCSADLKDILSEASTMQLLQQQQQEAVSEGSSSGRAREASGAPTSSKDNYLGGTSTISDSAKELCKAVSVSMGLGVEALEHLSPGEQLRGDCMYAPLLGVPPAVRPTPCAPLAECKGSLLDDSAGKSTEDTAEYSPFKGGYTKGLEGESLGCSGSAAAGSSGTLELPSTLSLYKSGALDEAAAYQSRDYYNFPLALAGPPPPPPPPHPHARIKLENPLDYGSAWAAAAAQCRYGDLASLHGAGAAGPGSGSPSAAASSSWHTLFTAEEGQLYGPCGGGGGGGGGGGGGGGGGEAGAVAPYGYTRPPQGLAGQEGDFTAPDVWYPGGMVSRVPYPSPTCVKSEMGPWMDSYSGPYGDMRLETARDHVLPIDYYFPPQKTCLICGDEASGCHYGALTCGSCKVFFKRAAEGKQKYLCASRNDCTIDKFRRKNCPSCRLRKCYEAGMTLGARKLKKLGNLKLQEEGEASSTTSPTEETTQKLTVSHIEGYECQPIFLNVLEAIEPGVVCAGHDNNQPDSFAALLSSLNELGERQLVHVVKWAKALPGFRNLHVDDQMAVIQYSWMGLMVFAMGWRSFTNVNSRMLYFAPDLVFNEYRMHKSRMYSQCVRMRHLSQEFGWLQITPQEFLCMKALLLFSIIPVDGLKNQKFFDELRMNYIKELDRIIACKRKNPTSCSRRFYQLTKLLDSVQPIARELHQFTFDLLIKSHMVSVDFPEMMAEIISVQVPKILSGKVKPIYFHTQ
# UniProt P31751: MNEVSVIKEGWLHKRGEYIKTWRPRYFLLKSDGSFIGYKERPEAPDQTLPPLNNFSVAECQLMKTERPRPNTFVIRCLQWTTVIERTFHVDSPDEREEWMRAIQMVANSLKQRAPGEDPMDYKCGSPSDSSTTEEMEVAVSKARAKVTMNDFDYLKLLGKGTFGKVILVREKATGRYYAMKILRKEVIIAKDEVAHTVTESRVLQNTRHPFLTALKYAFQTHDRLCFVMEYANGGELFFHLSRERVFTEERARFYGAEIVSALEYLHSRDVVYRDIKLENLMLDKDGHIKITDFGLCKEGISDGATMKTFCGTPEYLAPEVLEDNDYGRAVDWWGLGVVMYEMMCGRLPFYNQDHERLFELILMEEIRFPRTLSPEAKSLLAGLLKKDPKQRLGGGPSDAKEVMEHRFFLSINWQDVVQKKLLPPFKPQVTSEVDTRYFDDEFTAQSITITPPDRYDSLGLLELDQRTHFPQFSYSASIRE
# UniProt P49137, whole entry, looked up: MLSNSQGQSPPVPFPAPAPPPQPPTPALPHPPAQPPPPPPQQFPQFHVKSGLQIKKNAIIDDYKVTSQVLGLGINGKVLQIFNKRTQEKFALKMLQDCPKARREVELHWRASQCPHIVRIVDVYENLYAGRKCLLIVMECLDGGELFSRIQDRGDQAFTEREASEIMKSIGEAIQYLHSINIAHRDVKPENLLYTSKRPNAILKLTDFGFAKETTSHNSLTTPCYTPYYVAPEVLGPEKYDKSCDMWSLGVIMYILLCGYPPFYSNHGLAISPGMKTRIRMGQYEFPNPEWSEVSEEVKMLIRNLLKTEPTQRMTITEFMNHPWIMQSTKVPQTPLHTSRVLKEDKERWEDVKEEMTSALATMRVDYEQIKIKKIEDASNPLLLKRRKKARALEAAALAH
# UniProt P18031: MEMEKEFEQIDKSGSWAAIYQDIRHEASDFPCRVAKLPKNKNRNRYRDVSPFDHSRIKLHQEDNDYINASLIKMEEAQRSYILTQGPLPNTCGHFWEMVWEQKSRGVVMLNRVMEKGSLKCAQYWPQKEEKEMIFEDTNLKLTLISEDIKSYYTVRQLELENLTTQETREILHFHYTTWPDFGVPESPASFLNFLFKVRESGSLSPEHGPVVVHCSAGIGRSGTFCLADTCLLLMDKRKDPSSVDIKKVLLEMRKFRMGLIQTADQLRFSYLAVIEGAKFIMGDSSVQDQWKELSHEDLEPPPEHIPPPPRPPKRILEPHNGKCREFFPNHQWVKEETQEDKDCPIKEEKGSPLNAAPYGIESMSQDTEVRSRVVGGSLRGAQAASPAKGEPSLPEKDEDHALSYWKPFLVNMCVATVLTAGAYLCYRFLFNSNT
# UniProt P43378: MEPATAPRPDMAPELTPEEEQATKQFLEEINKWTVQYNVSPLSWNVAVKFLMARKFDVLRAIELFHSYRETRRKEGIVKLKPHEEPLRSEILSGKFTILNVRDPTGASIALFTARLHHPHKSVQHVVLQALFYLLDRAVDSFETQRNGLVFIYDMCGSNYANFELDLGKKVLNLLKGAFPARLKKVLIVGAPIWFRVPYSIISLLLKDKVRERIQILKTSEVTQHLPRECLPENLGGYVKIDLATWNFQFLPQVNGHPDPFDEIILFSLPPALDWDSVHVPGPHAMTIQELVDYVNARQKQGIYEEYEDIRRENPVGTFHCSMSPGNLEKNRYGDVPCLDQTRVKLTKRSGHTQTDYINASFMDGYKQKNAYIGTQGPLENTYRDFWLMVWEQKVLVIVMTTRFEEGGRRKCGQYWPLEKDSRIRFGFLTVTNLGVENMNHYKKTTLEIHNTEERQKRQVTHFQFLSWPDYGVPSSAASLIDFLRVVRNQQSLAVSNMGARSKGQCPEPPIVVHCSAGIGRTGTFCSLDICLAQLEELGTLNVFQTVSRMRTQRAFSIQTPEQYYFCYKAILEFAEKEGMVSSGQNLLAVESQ
# Experiments:
# [1] = Tanguay_ZF_120hpf_EYE_legacy: (Legacy) Oregon State University Tanguay Lab 120 Hour Post-fertilization zebrafish Assay for Eye Malformation (AID 2283636);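 also: binary presence or absence of eye malformation scored by brightfield in 120 hpf larvae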
# Procedure, shortened: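 Static waterborne exposure of dechorionated zebrafish embryos (strain Tropical 5D), 6 to 120 hpf, sealed plates at 28C, 0.64% DMSO vehicle. Eye malformation is scored as a binary endpoint, with gain of signal analysed relative to DMSO.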
# [2] = CCTE_Shafer_MEA_acute_LDH: CCTE's Lactate Dehydrogenase Assay for Cytotoxicity in the Neural Acute Assay, Shafer Lab (AID 2284086);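 also: active means LDH release rises above DMSO vehicle level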
# Procedure, shortened: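 Cytotoxicity readout: spectrophotometric LDH activity in supernatant of rat primary cortical neurons, post-plating day 13 or 15, sampled after 40 min compound exposure; signal gain relative to DMSO baseline.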
# [3] = molecular target: sheep Cyclooxygenase-1 (Cox1), PTGS1 (gene 443551) (UniProt P05979); test: NVS_ENZ_oCOX1: NovaScreen (NVS) Enzymatic Assay for sheep Cyclooxygenase-1 (Cox1) (AID 2283239);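 also: actives reduce cyclooxygenase activity so potencies are for inhibitors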
# Procedure, shortened: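 Colorimetric enzyme readout using sheep seminal-vesicle cyclooxygenase-1, measured 0.66 h post-dosing. Single-concentration duplicates at 25 uM first, then concentration series for actives, with DMSO as baseline and plate controls.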
# [4] = system: turtle Estrogen Receptor (ERa), gene 101933533; test: ATG_trERa_XSP2: Attagene TRANS-FACTORIAL Multi-Species (XSP2) HepG2 Assay for turtle Estrogen Receptor (ERa) (AID 2283812);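 also: actives raise reporter signal above DMSO so AC50 reflects agonist activity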
# Procedure, shortened: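 Readout is reporter mRNA quantified by RT-PCR with capillary electrophoresis after 24 h compound exposure, increase relative to DMSO. Uses transiently transfected human HepG2 liver cells carrying a chimeric turtle ERa-Gal4 receptor driving GAL4-UAS reporters.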
# [5] = molecular target: GAL4 Transcription Factor (Internal Marker), GAL4 (gene 855828) (UniProt P04386); test: ATG_GAL4_XSP2: Attagene TRANS-FACTORIAL Multi-Species (XSP2) HepG2 Assay for GAL4 Transcription Factor (Internal Marker) (AID 2283814);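 also: GAL4 reporter mRNA background control in MRTU transfected cells not a receptor target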
# Procedure, shortened: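 Background-control readout: gain-of-signal fitted against DMSO. After 24 h exposure of transfected HepG2 (MRTU, GAL4-UAS reporters; 3 nM 6-alpha-fluorotestosterone, 1.5 nM norgestrel present), transcripts quantified by RT-PCR and capillary electrophoresis fluorescence.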
# [6] = molecular target: frog Thyroid hormone Receptor alpha (TRa), thra-a (gene 397942) (UniProt P15204); test: ATG_frTRa_XSP2: Attagene TRANS-FACTORIAL Multi-Species (XSP2) HepG2 Assay for frog Thyroid hormone Receptor alpha (TRa) (AID 2283839);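 as to AC50: AC50 reflects induction of frog TRa-driven reporter mRNA above DMSO baseline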
# Procedure, shortened: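 Reporter transcripts were measured by RT-PCR with capillary electrophoresis after 24 h dosing of HepG2 carrying transiently transfected multi-reporter units, including a chimeric frog TRa-GAL4 construct. Activity was taken as increase over DMSO vehicle.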
# [7] = STM_H9_NormalizedViability: Cytotoxicity Assessment at 120 hours in the Stemina devTOX quickPredict H9 human embryonic stem cell (hESC)-based Assay (AID 2283784)
# Procedure, shortened: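 Here, H9 cells received test compound with daily medium renewal. Each plate included methotrexate references (1uM, 5 nM), 0.1% DMSO and media blanks; CellTiter-Fluor RFU was normalized to DMSO.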
# [8] = CCTE_Mundy_HCI_Cortical_Synap_Neur_Matur_NeuronCount: CCTE's Synaptogenesis and Neurite Maturation Assay in rat cortical cells for Neuron Count, Mundy Lab (AID 2284242);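 as to AC50: hits reduce neuron count versus DMSO baseline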
# Procedure, shortened: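 Measured at DIV 12: fluorescently labelled neurons (Hoechst nuclei, MAP2) in rat primary cortical cultures, counted by high-content imaging. AraC suppressed glia from DIV 5; DMSO served as negative control.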
# [9] = molecular target: human AKT serine/threonine Kinase 1 (AKT1), AKT1 (gene 207) (UniProt P31749); test: NVS_ENZ_hAKT1: NovaScreen (NVS) Enzymatic Assay for human AKT serine/threonine Kinase 1 (AKT1) (AID 2283138)
# Procedure, shortened: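 A biochemical assay with recombinant enzyme and specific substrate, read by fluorescence intensity with mobility-shift separation 1 hour after dosing. Actives from 25 uM duplicate screening were titrated up to 50 uM against DMSO baseline.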
# [10] = CCTE_Mundy_HCI_Cortical_NOG_NeuronCount: CCTE's Neurite Outgrowth Assay in rat cortical cells for Neuron Count, Mundy Lab (AID 2284236);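 also: neurons counted by imaging betaIII-tubulin and Hoechst stained cortical cells; cells exposed to compound for about 48 hours before fixation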
# Procedure, shortened: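 Read-out: neuron number by high-content imaging of betaIII-tubulin (Alexa Fluor-488) and Hoechst-labelled rat primary cortical cells.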
# [11] = molecular target: human Peroxisome Proliferator-activated Receptor alpha (PPARa), PPARA (gene 5465) (UniProt Q07869); test: NVS_NR_hPPARa: NovaScreen (NVS) Nuclear Receptor Binding Assay for human Peroxisome Proliferator-activated Receptor alpha (PPARa) (AID 2283359);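 also: activity means loss of TR-FRET signal versus DMSO baseline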
# Procedure, shortened: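 One-hour incubation, cell-free extracted protein, TR-FRET binding readout; signal loss vs DMSO scored. Screen: 25 uM duplicates, confirmatory dose series for actives.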
# [12] = molecular target: Estrogen-related receptor gamma (Homo sapiens) (UniProt P62508); test: ATG_ERRg_TRANS: Attagene TRANS-FACTORIAL HepG2 Assay for human Estrogen-Related Receptor gamma (ERRg) (AID 2282977); details: HepG2 Attagene TRANS reporter, ERRg transactivation;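 also: hits increase reporter signal over DMSO so potencies reflect activators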
# Procedure, shortened: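 Exogenous NR-Gal4 chimera activity was assessed in HepG2 cells bearing transfected GAL4-UAS reporters. After 24 h dosing, total RNA underwent RT-PCR, fluorescent primer extension and HpaI digestion before capillary electrophoresis, with gain of signal scored against DMSO.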
# [13] = molecular target: chimpanzee Androgen Receptor (AR), AR (gene 747460) (UniProt O97775); test: NVS_NR_cAR: NovaScreen (NVS) Nuclear Receptor Binding Assay for chimpanzee Androgen Receptor (AR) (AID 2283346);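 also: radioligand displacement from AR measured by scintillation counting in a cell-free assay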
# Procedure, shortened: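 Cell-free radioligand displacement using receptor protein extracted from Sf9/Sf21 cells; bound radioligand measured by scintillation counting 72 hours after chemical dosing. Loss of signal versus DMSO baseline indicates binding; primary screen single-concentration in duplicate at 25 uM, actives followed in concentration series.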
# [14] = molecular target: human AKT serine/threonine Kinase 2 (AKT2), AKT2 (gene 208) (UniProt P31751); test: NVS_ENZ_hAKT2: NovaScreen (NVS) Enzymatic Assay for human AKT serine/threonine Kinase 2 (AKT2) (AID 2283141)
# Procedure, shortened: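 Cell-free fluorescence/electrophoretic mobility shift readout of recombinant human AKT2 activity, 1 h after chemical dosing. Duplicate primary screen at 25 uM, then singleton concentration-response up to 50 uM; loss of signal versus DMSO baseline.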
# [15] = molecular target: human MAP Kinase-Activated Protein Kinase 2 (MAPKAPK2), MAPKAPK2 (gene 9261) (UniProt P49137); test: NVS_ENZ_hMAPKAPK2: NovaScreen (NVS) Enzymatic Assay for human MAP Kinase-Activated Protein Kinase 2 (MAPKAPK2) (AID 2283178)
# Procedure, shortened: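 Chemicals screened in duplicate at 25 uM, then to 50 uM top concentration in concentration-response, against recombinant human MAPKAPK2; substrate conversion read 1 hr post-dosing by fluorescence after electrophoretic mobility-shift separation, loss-of-signal relative to DMSO.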
# [16] = molecular target: human Protein Tyrosine Phosphatase Non-receptor Type 1 (PTPN1), PTPN1 (gene 5770) (UniProt P18031); test: NVS_ENZ_hPTPN1: NovaScreen (NVS) Enzymatic Assay for human Protein Tyrosine Phosphatase Non-receptor Type 1 (PTPN1) (AID 2283201)
# Procedure, shortened: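 Chemicals were first tested in duplicate at 25 uM, and those passing threshold went on to singleton concentration series topping at 50 uM. Recombinant enzyme, specific substrate, product separated by mobility shift, fluorescence read at 1.33 h; activity loss relative to DMSO.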
# [17] = molecular target: human Protein Tyrosine Phosphatase Non-receptor Type 9 (PTPN9), PTPN9 (gene 5780) (UniProt P43378); test: NVS_ENZ_hPTPN9: NovaScreen (NVS) Enzymatic Assay for human Protein Tyrosine Phosphatase Non-receptor Type 9 (PTPN9) (AID 2283209)
# Procedure, shortened: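 Sf9-expressed enzyme in a cell-free assay, fluorescence read 1.33 h after dosing with mobility-shift separation of substrate and product. Tested at 25 uM in duplicate, then up to 50 uM; signal loss versus DMSO.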
# [18] = molecular target: human SRC Proto-Oncogene, Non-receptor Tyrosine Kinase (SRC), SRC (gene 6714) (UniProt P12931); test: NVS_ENZ_hSRC: NovaScreen (NVS) Enzymatic Assay for human SRC Proto-Oncogene, Non-receptor Tyrosine Kinase (SRC) (AID 2283223)
# Procedure, shortened: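 Compounds passing 30% inhibition at 25 uM (duplicate) were titrated to a top concentration of 50 uM. Enzyme activity read by fluorescence with mobility-shift substrate/product separation after 1 h; DMSO baseline.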
# [19] = Tanguay_ZF_120hpf_AXIS_legacy: (Legacy) Oregon State University Tanguay Lab 120 Hour Post-fertilization zebrafish Assay for Body Axis Malformation (AID 2283635);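 as to AC50: potency for an increased fraction of larvae scored with body axis malformation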
# Procedure, shortened: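 Binary scoring of axis defects at 120 hpf under brightfield, fitted positive versus DMSO. Tropical 5D embryos, chorion removed by pronase at 4 hpf, were singly exposed in sealed, dark plates at 28C from 6 hpf; DMSO 0.64% final.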
# [20] = Tanguay_ZF_120hpf_SOMI_legacy: (Legacy) Oregon State University Tanguay Lab 120 Hour Post-fertilization zebrafish Assay for Somite Malformation (AID 2283647)
# Procedure, shortened: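 Binary somite-defect scoring at 120 hpf, omitted for embryos that died, in wild-type (Tropical 5D) zebrafish with chorion removed by pronase at 4 hpf; static exposure began 6 hpf, single embryos per well, 28C, 0.64% DMSO; fitted positive versus DMSO.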
compound,measurement,setting,value
CCCCC=O,AC50,[1],active: 38.4 µM
same,AC50,[2],inconclusive: 20 µM
C[C@](N)(Cc1ccc(O)c(O)c1)C(=O)O,AC50,[3],active: 2.33 µM
CC(C)(C)c1ccc(S)cc1,AC50,[4],inconclusive: 100 µM
same,outcome,[5],inactive
same,AC50,[6],inconclusive: 47.3 µM
same,outcome,[6],inactive
O=C1NS(=O)(=O)c2ccccc21,AC50,[7],inconclusive: 9.92 µM
same,outcome,[8],inactive
CCCCCC(=O)O,outcome,[9],inactive
Cc1noc(NS(=O)(=O)c2ccc(N)cc2)c1C,AC50,[10],inconclusive: 0.000178 µM
same,AC50,[8],inconclusive: 15 µM
CC(C)(COC(=O)c1ccccc1)COC(=O)c1ccccc1,AC50,[3],inconclusive: 25 µM
CC1(C)S[C@@H]2[C@H](NC(=O)[C@H](N)c3ccccc3)C(=O)N2[C@H]1C(=O)O,AC50,[8],inconclusive: 0.0035 µM
COCCOc1cc2cc(C(=O)NC3CCN(C(C)C)CC3)n(CC(=O)Nc3ccc(Cl)cn3)c2cn1,AC50,[11],inconclusive: 22.5 µM
O=C(O)c1ccccc1O,outcome,[12],inactive
same,AC50,[13],inconclusive: 2.06 µM
CC/C(=C(\c1ccccc1)c1ccc(OCCN(C)C)cc1)c1ccccc1,AC50,[9],active: 33.4 µM
same,AC50,[14],inconclusive: 5.49 µM
same,AC50,[15],inconclusive: 10.3 µM
same,AC50,[16],inconclusive: 14.7 µM
same,AC50,[17],inconclusive: 3.57 µM
same,AC50,[18],inconclusive: 3.54 µM
same,outcome,[13],inactive
same,outcome,[19],inactive
same,AC50,[1],inconclusive: 266 nM and inconclusive: 202 µM
same,AC50,[20],inconclusive: 202 µM
same,AC50,[4],inconclusive: 0.00457 µM
same,AC50,[5],inconclusive: 1340 nM
same,AC50,[2],inconclusive: 18.3 µM and inconclusive: 18.2 nM
N[C@@H](Cc1c[nH]c2ccccc12)C(=O)O,AC50,[19],inconclusive: 46.1 µM
CC(=O)[C@@]1(O)CC[C@H]2[C@@H]3CCC4=CC(=O)CC[C@]4(C)[C@H]3CC[C@@]21C,outcome,[20],inactive
CC/C(=C(/CC)c1ccc(O)cc1)c1ccc(O)cc1,AC50,[18],inconclusive: 0.646 µM
same,AC50,[11],inconclusive: 4.96 µM
same,AC50,[1],inconclusive: 1.43 µM
same,AC50,[20],inconclusive: 3.82 µM
same,AC50,[7],inconclusive: 2 µM
same,AC50,[4],active: 0.000138 µM
same,AC50,[5],inconclusive: 0.082 nM
same,AC50,[6],inconclusive: 0.1 µM
same,AC50,[2],inconclusive: 20 µM
same,AC50,[8],active: 14 µM

# Nothing new here: entries from further up.
compound,measurement,setting,value
CC(C)(C)c1ccc(S)cc1,outcome,[5],inactive
same,AC50,[6],inconclusive: 47.3 µM
same,outcome,[6],inactive
O=C1NS(=O)(=O)c2ccccc21,AC50,[7],inconclusive: 9.92 µM
same,outcome,[8],inactive
CCCCCC(=O)O,outcome,[9],inactive
Cc1noc(NS(=O)(=O)c2ccc(N)cc2)c1C,AC50,[10],inconclusive: 0.000178 µM
same,AC50,[8],inconclusive: 15 µM
CC(C)(COC(=O)c1ccccc1)COC(=O)c1ccccc1,AC50,[3],inconclusive: 25 µM
CC1(C)S[C@@H]2[C@H](NC(=O)[C@H](N)c3ccccc3)C(=O)N2[C@H]1C(=O)O,AC50,[8],inconclusive: 0.0035 µM
COCCOc1cc2cc(C(=O)NC3CCN(C(C)C)CC3)n(CC(=O)Nc3ccc(Cl)cn3)c2cn1,AC50,[11],inconclusive: 22.5 µM

# Source: PubChem BioAssay (EPA / NIEHS)
